Data: patent US12674148B2, “Cell-based reporter assay for screening inhibitors of coronavirus RNA-dependent RNA polymerase activity” (priority 2020, dated 2026)
“Also recorded” adds a separate entry of the source. For at least one compound, name, drawing or mass did not settle the structure.

Protein sequences, listed by entry. Tags and fused reporters are not part of them. Residues count along the entry.
UniProt K9N7C7, 4378-5310 limits assumed: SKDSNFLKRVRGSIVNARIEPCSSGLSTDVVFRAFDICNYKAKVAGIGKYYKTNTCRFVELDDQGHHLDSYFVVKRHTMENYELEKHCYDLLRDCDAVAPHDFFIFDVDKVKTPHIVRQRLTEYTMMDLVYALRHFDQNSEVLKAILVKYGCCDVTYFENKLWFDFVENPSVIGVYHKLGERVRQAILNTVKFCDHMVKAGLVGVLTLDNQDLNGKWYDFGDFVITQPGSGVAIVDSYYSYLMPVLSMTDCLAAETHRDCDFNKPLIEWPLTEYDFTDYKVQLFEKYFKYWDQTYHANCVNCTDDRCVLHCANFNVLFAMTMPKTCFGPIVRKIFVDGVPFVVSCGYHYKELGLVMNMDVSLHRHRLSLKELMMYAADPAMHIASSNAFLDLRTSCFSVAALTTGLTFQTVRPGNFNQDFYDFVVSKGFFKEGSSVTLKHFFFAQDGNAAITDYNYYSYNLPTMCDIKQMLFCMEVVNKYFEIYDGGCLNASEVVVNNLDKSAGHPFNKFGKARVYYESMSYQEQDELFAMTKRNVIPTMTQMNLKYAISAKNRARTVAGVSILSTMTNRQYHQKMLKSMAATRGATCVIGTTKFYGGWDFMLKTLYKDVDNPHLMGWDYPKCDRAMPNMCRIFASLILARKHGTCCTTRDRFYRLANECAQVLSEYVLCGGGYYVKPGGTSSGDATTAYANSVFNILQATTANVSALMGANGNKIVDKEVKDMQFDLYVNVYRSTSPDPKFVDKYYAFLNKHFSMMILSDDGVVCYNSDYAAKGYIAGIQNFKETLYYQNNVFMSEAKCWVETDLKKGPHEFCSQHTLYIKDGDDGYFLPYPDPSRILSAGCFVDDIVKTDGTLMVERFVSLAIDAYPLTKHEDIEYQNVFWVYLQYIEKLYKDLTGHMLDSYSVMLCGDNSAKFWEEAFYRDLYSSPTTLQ

Assays:
[1] = target: MERS-CoV RdRp (Middle East respiratory syndrome-related coronavirus, UniProt K9N7C7); assay type: cell-based
[2] = target: T1, SARS-CoV-2 RdRp (Severe acute respiratory syndrome coronavirus 2, UniProt P0DTD1); assay type: cell-based
T1 construct: the N-terminus or C-terminus FLAG-labeled SARS-CoV-2 nsp12gene were obtained; expressed in transfected cells; host or cells: HEK293T

SMILES | effect on MERS-CoV RdRp activity (in words) [1] | FLuc activity (internal control) [1] | NLuc activity [1] | FLuc activity (internal control) [2] | NLuc activity [2] | effect on SARS-CoV-2 RdRp activity (in words) [2]
Nc1ccn([C@@H]2CS[C@H](CO)O2)c(=O)n1 [lamivudine] | did not reduce; also recorded: no significant effect |  |  |  |  | 
CCC(CC)COC(=O)[C@H](C)N[P@](=O)(OC[C@H]1O[C@@](C#N)(c2ccc3c(N)ncnn23)[C@H](O)[C@@H]1O)Oc1ccccc1 [remdesivir] | most of the MERS-CoV RdRp activity could be inhibited; also recorded: inhibit MERS-CoV RdRp activity in a concentration-dependent manner | not reduced | reduced in a dose-dependent manner | not reduced | reduced in a dose-dependent manner | most of the SARS-CoV-2 RdRp activity could be inhibited; also recorded: inhibited in a concentration-dependent manner
